Experimental findings from patent US12252488B2 (Nimbus Saturn, Inc., priority 2021, dated 2025) are described below.

Amino acid sequences for entries named in this document (tags omitted).
UniProt Q92918, whole entry: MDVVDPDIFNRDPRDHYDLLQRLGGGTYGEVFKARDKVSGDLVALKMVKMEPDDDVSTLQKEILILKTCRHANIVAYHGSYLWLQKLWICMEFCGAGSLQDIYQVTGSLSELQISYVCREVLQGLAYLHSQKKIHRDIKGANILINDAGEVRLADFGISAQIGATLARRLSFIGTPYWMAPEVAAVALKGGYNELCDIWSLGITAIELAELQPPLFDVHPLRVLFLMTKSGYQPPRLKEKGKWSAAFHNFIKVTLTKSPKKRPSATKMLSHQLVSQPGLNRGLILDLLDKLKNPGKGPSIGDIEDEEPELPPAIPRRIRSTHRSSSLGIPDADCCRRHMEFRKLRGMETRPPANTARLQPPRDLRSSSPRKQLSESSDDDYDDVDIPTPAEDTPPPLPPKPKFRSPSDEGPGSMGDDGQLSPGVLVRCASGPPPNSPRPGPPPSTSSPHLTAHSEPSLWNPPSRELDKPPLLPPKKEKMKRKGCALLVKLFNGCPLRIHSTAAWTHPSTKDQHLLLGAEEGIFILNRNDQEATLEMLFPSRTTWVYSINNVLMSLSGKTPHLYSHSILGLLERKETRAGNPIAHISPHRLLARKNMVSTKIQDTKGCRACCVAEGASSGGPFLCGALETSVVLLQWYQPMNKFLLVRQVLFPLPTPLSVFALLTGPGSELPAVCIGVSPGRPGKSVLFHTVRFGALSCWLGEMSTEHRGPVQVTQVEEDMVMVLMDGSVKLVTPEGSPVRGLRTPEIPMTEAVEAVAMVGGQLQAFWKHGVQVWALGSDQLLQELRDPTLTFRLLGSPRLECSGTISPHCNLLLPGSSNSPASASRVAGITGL

Structures were worked out from names or drawings and are uncertain.

The assay addresses HPK1 (Homo sapiens, UniProt Q92918). Kind of assay: HPK1 biochemical enzyme assay (microfluidic mobility shift assay). As to conditions: read-out: HPK1 1000UMATP caliper IC50, 1000 uM (1 mM) ATP, 1.5 nM HPK1, 30 min preincubation. On the procedure: Example 33. HPK1 Biochemical Enzyme Assay
HPK1 biochemical enzyme assay: HPK1 enzyme inhibition was measured using a microfluidic mobility shift assay. Reactions were performed in a 384-well plate, containing 1.5 nM HPK1 (Invitrogen), in assay buffer (Carna Biosciences; pH 7.4). Test compounds were titrated in ten point curves (top final assay concentration 3 μM), and preincubated with enzyme/substrate mix for 30 min prior to initiation of the reaction by addition of ATP (1 mM final concentration) and substrate (1 μM final concentration; Carna Biosciences) diluted in assay buffer supplemented by MgCl2 (final assay concentration of 5 mM). Following 60 min incubation at RT, the reaction was terminated by addition of 60 μl/well termination buffer (Carna Biosciences) and signal determination using a Caliper EZ Reader (Perkin Elmer, UK).
The compound numbers correspond to the compound numbers in Table 1. Compounds having an activity designated as “A” provided an IC50≤100 nM; compounds having an activity designated as “B” provided an IC50>100 nM and ≤1,000 nM; compounds having an activity designated as “C” provided an IC50>1,000 nM.
For `COc1ccc(Nc2cc(-c3ccc(NC(=O)C4CCCCC4)cc3F)nc3cc[nH]c(=O)c23)nc1`, the IC50 (commonly the point on the concentration scale where inhibition reaches its midpoint) was less than 100 nM.

Turning to `O=c1[nH]ccc2nc(-c3ccc(OCc4ccccc4)cc3F)cc(Nc3ccc(N4CCC(O)CC4)cn3)c12`, the IC50 lay within 100 to 1000 nM.

Regarding `COc1cc(-c2cc(Nc3ccc(N4CCNCC4)cn3)c3c(=O)[nH]ccc3n2)c(F)cc1C(=O)N1CCCC1`, the IC50 was 100 to 1000 nM.

Consider `O=C(c1ccc(-c2cc(Nc3ccc(N4CCNCC4)cn3)c3c(=O)[nH]ccc3n2)c(F)c1)N1CC2C(C1)C2(F)F` (stereo not shown), for which the IC50 is more than 1000 nM.
